Experimental findings from patent publication US20210277119A1 are described below.

No constants are given. Whether binding was seen depends on the method and setting. Some entries that bind do so weakly or less than the wild type.

The test has as its target recombinant protein TCRVB 6-5 (human). In words: SPR, TCRVB 6-5 on Biotin CAP chip.

B1: A-H.53 (scFv)
scFv: QVQLVQSGAEVKKPGSSVKVSCKASGYSFRLTYIHWVRQAPGQGLEWMGWFFPGSGNIKYNEKFKGRVTITADTSTSTAYMELSSLRSEDTAVYYCAGSYYSYDVLDYWGQGTTVTVSSGGGGSGGGGSGGGGSGGGGSDIQMTQSPSFLSASVGDRVTITCKASQNVGINVVWHQQKPGKAPKALIYSSSHRYSGVPSRFSGSGSGTEFTLTISSLQPEDFATYFCQQFKSYPLTFGQGTKLEIK
In the case of B1, the binding result is “binds”.
